This is one part of the list. Some tests of the compounds listed are not included; inactive here does not mean inactive elsewhere.

The experiment can be described thus: inhibitors of TNFa-induced NFkB p65 translocation, primary screen, imaging, HUVEC, MLSMR starter and 10KST1 sets (AID 438).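 Note: compound added about 3h40 before a 20 min TNFalpha stimulation.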 Conditions: HUVEC TNFa-induced p65 nuclear translocation, measured here: nuclei count (cytotoxicity indicator), at 2.08 µM.
For `O=C(OC1CN2CCC1CC2)C(CO)(c1ccccc1)c1ccccc1` (stereo unspecified), the cell count was found to be 603.
